Measured values from PMC5180104, “Interaction of cytokeratin 19 head domain and HER2 in the cytoplasm leads to activation of HER2-Erk pathway” (Scientific Reports, 2016).
Results are given in words; binding and its absence hold for the method and conditions named. In cells and extracts the contact can be indirect.

Protein sequences, listed by entry. Tags and fused reporters are not part of them. Residues count along the entry.
UniProt P08581, residues 25-1390: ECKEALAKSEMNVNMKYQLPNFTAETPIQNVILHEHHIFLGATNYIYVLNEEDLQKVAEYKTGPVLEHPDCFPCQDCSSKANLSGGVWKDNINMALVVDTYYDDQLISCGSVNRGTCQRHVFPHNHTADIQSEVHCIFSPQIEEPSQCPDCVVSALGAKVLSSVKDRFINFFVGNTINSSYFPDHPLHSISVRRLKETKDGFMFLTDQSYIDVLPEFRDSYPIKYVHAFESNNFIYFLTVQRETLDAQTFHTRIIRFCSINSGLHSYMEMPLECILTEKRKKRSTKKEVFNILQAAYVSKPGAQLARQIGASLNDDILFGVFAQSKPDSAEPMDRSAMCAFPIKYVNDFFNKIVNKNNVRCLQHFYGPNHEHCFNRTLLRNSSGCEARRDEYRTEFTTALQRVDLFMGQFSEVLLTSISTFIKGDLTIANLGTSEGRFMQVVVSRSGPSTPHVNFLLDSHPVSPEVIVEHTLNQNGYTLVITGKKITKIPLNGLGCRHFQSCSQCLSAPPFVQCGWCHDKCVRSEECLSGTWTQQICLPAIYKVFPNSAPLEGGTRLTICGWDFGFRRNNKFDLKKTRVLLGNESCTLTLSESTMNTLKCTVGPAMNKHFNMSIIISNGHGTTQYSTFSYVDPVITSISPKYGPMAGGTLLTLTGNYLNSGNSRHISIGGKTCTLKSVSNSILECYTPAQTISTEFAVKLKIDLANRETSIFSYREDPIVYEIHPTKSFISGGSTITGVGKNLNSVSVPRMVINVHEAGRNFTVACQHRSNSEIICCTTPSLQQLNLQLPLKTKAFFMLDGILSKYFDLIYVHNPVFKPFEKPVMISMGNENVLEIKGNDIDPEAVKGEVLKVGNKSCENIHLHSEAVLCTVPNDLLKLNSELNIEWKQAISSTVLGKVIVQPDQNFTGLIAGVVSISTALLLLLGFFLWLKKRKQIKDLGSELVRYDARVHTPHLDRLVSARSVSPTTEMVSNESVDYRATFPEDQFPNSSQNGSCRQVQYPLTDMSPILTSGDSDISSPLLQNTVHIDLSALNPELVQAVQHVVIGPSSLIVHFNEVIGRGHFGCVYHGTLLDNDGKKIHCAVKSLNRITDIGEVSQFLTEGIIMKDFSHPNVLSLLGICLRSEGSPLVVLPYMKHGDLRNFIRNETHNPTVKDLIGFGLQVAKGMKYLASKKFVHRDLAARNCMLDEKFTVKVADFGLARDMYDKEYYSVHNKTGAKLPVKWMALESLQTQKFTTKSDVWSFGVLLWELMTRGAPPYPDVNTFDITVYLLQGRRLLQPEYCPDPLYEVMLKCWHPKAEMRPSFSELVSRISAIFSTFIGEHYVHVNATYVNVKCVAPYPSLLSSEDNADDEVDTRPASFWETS
UniProt P08727: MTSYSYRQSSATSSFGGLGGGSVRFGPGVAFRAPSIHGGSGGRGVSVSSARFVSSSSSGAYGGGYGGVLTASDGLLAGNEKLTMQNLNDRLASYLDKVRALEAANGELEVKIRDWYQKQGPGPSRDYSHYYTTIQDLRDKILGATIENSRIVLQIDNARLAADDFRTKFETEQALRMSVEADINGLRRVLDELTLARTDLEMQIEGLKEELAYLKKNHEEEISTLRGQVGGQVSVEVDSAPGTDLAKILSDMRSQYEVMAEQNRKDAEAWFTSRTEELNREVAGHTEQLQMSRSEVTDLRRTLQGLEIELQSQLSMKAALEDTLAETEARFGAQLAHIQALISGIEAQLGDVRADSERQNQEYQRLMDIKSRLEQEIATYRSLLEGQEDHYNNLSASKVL

Tests used:
[1] = target: full-length EGFR, COOH-terminal HA-6His-tagged (human) (UniProt P00533); test: co-IP; co-transfected HEK293T cells (Fig. 1A also A549), serum free condition; lysates (Fig. 3D also culture media) immunoprecipitated with anti-HA tag agarose beads; Western blot for Flag-tagged KRT19 forms
[2] = target: full-length MET, COOH-terminal HA-6His-tagged (human) (UniProt P08581); test: as above

binding [1]: no binding | binding [2]: no binding
Substance: full-length KRT19, COOH-terminal Flag-6His-tagged (from UniProt P08727 1-400)
